Experimental data: the supplement of paper PMC3334620
Whole data set: some 33,000 sequences, median “E-score (-0.5 to 0.5)” near -0.016, cut for the highest 2% near 0.3. Some of the results follow.

target: T1, Yer184c (UniProt P39961); assay: PBM E-score (8-mer binding enrichment) (E-score (-0.5 to 0.5)); higher = stronger / more preferred TF binding; conditions: protein concentration: 100 nM; construct: GST-full length
T1 sequence: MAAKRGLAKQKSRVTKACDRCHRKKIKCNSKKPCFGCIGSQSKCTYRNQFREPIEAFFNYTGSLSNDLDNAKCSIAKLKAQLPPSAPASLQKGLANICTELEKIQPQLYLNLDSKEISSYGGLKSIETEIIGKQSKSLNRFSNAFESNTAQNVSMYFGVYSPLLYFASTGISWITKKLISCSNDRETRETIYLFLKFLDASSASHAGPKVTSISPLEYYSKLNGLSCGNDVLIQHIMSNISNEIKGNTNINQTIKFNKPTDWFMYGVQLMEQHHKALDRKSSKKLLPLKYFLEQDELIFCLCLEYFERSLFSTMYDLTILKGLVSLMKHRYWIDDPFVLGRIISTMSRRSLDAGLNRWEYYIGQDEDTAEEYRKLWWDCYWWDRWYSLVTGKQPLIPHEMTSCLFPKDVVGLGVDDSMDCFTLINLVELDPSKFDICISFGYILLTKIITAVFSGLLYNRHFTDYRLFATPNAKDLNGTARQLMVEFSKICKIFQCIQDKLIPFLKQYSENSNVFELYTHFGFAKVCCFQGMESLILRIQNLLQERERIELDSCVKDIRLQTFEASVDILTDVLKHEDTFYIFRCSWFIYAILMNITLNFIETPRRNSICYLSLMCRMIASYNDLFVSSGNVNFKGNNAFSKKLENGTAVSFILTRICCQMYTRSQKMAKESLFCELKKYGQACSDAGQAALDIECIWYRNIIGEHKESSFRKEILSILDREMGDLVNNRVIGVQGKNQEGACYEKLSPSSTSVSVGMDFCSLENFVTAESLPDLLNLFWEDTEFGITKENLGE
Summary of the method: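 Masliner-normalised scans of fluorescent anti-GST signal were the basis for scoring. That signal came from GST-tagged yeast transcription factors applied at about 100-200 nM to double-stranded universal all-10-mer Agilent arrays on fresh or once-stripped slides. Each ungapped eight-base word, pooled with its reverse complement, received an E-score from the Universal PBM Analysis Suite.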

In order of rising “PBM E-score” value:
1. GTGCCCCA  -0.305
2. GGGCTCCA  -0.301
3. GGAGGCCC  -0.297
4. ACCTAGCT  -0.277
5. AGGACGAG  -0.269
6. GTGCGCTA  -0.26
7. AAAGTGGA  -0.249
8. CCCAGGGG  -0.241
9. CCCGCTCC  -0.239
10. CCACCCAG  -0.237
11. CAGGTACA  -0.235
12. CTAAAGCC  -0.232
13. GGGCGATA  -0.222
14. CACGCTTC  -0.221
15. CCAGGCCA  -0.211
16. GGTGGACA  -0.207
17. TAGGGAAA  -0.199
18. AAGTCGCT  -0.196
19. AGCCCTAG  -0.191
20. ATTGGCTG  -0.187
21. GAAAGGTC  -0.177
22. ACCCTCTG  -0.169
23. AATGGAGT  -0.163
24. GTCTGGCA  -0.16
25. GCCAAGAC  -0.16
26. AAGGCCTA  -0.159
27. TTCCCCAA  -0.158
28. CAGGCACG  -0.157
29. CCGTCCCC  -0.154
30. AGGCCTCC  -0.153
31. ACTTGACG  -0.151
32. CATATTCC  -0.149
33. GGTAGCCA  -0.146
34. AACTCAGT  -0.146
35. CCCATTTC  -0.139
36. ATGAAATG  -0.138
37. AAGCCTCC  -0.136
38. ACGATGCC  -0.123
39. ACGTTCGA  -0.12
40. ACGATAGG  -0.119
41. ATCTCTAG  -0.118
42. CAGGATAC  -0.116
43. GAGCTTAC  -0.114
44. CCCTGACG  -0.104
45. AGGAAGTG  -0.102
46. GGGGTAGA  -0.101
47. GCCATTTA  -0.101
48. GAAAGACC  -0.0964
49. ACGGTTCG  -0.0961
50. AGAGCAGG  -0.0954
51. CTTGATTA  -0.0944
52. CGACTCTC  -0.0925
53. CGTGATGA  -0.0921
54. AGATTGGC  -0.0896
55. GCGTCTTA  -0.0802
56. AAAATCTC  -0.0791
57. GCATGCCA  -0.0785
58. GCGAATAC  -0.0764
59. GATAGTCA  -0.0754
60. ATGGGAAT  -0.0742
61. TCACCTCA  -0.072
62. CTGACCAC  -0.0704
63. ATGACCAG  -0.0699
64. CGGTACCC  -0.0697
65. ATAGAGTG  -0.0689
66. CTAGTTTA  -0.0669
67. GCTAACCA  -0.0625
68. AATTGTGT  -0.062
69. GAGAGGCC  -0.0596
70. GTTCAGGA  -0.0568
71. GTACGTGA  -0.0567
72. ATGTACAC  -0.0534
73. ACAAGACT  -0.0529
74. ATACGGTG  -0.049
75. AAACGACT  -0.0469
76. GCGTTAGC  -0.0452
77. GTATGGAA  -0.041
78. GCTAGAGA  -0.0348
79. GCGCAACA  -0.034
80. AAGTTGCG  -0.029
81. CAGCATCA  -0.0284
82. CCGACACC  -0.0248
83. CATTTACA  -0.0246
84. ACTATACT  -0.0234
85. CAATCACA  -0.0229
86. CTTTGCGA  -0.0227
87. TCAGACAA  -0.0221
88. AAAATGTA  -0.017
89. CTGCATAC  -0.0165
90. TAGACAAA  -0.0161
91. TATTGTAA  -0.0132
92. CAAGTTAA  0.00911
93. AACTGGCA  0.00917
94. CAAAGGCA  0.00969
95. CCCAGCAG  0.0118
96. GGATTCAC  0.0148
97. TATTTTGA  0.0179
98. CACTTTCC  0.021
99. AAAGCATA  0.0214
100. CCGCATGC  0.0227
101. ATTCGCCA  0.0246
102. ACCCGAAG  0.0247
103. ACTCATAT  0.0248
104. AACTACCT  0.0254
105. TCGTCCAA  0.0266
106. GAACCATC  0.0341
107. ATGCTAAT  0.0369
108. AGAGTAAC  0.0419
109. AACAATGG  0.0443
110. AATGTTCG  0.0469
111. ACGACGTA  0.0489
112. CAAATTAC  0.0501
113. CTGTTCAA  0.0508
114. AAGGCCGC  0.051
115. ATCATAGG  0.0557
116. AATGTTGC  0.0568
117. GTGACAAC  0.0577
118. TATCGAGA  0.0597
119. ATAAGTTG  0.0611
120. GAGATGAA  0.0633
121. GACGTTAA  0.0643
122. AACTACAC  0.0662
123. CCATACAA  0.0684
124. CGCGCTTA  0.0718
125. CGTGTTAG  0.0729
126. GAGACGAC  0.0818
127. AACTCAAT  0.0852
128. ATACTTTA  0.0867
129. CTTTCATA  0.0871
130. GGCTGAAC  0.0871
131. AAATAGCT  0.0915
132. AAACCCAA  0.0937
133. CTATATCA  0.095
134. CTTCGAGC  0.0967
135. GCTCTTAA  0.101
136. GCATGTTA  0.103
137. AATAGCTA  0.105
138. GGTTGCGA  0.108
139. AATCATAT  0.109
140. CCTGTGAA  0.115
141. TCAACTAA  0.118
142. CTTAGGAA  0.12
143. AACTTAGG  0.123
144. ACCGTAGT  0.127
145. AAAATAGG  0.129
146. ATCTATAA  0.132
147. CGGGGTTA  0.133
148. CCGCCAAA  0.14
149. GGTTGATA  0.14
150. CAGATAAA  0.141
151. ATAGCAAT  0.146
152. CTGTGTAA  0.15
153. AGATGAAC  0.151
154. ATGAATTC  0.158
155. CTATCATA  0.162
156. ATCAACAA  0.176
157. CACGCGGA  0.181
158. CCCGGGGC  0.191
159. GCGGATAA  0.224
160. CCGGTAAC  0.259
161. AACAATCA  0.261
162. TGTGTAAA  0.27
163. AATTTCTA  0.274
164. CATTAAAA  0.279
165. CGCCGGGC  0.286
166. TACACAAA  0.301
167. AAATTCGG  0.302
168. GACCAAAA  0.309
169. CGGCTCAA  0.314
170. AAACCCGG  0.337
171. CCGGCGCC  0.354
172. CCGAAAAA  0.371
